No constants are given. Whether binding was seen depends on the method and setting. Some results given as binding are weak or reduced against the parent protein; the word gives no strength.
Molecular target: wild-type VSV G glycoprotein expressed at the surface of HEK293T cells (Vesicular stomatitis virus (Indiana Mudd-Summer strain)) (UniProt P0C2X0)
Assay: flow cytometry on cells; only the binder purified

Protein sequences, listed by entry. Tags and fused reporters are not part of them. Residues count along the entry.
UniProt P0C2X0, residues 17-511: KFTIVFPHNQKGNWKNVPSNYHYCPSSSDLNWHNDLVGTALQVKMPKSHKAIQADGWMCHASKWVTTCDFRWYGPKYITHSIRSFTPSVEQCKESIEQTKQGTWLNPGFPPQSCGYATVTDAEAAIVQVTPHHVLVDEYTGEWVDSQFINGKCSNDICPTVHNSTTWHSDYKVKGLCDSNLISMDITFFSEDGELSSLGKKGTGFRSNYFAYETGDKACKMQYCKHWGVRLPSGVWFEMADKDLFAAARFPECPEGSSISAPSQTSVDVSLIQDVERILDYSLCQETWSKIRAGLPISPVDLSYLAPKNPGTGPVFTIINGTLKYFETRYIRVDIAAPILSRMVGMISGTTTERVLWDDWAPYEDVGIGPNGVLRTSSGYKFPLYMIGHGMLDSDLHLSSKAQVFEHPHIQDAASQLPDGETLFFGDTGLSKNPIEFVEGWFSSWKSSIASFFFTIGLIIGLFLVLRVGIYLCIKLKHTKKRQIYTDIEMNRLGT

Substance | binding
GST-CR3 fluorescently labeled with ATTO550 (from UniProt P01130-1 108-144) (domain or fragment) | binds
GST-CR2 fluorescently labeled with ATTO550 (from UniProt P01130-1 65-106) (domain or fragment) | binds

Source: PMC5847621
